Experimental data as given in PubChem BioAssay AID1347423 (Functional Genomics Laboratory (NCATS/FGL), 2020).
Hit rate of the full screen: of about 52,000 sequences, about 210 (0.4%) were called active.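 Rule for the calls: active = gene whose silencing raises cell survival under the drug, median off-target-corrected z-score across its silencing RNAs 2 or more; inactive = the rest.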 The list shows a part of the results.

Assay: Resistance to Poly (ADP-Ribose) Polymerase inhibitor: Gene Identification via Genome-wide siRNA Screen
Details: mouse BRCA2 R2336H ES cells, olaparib, CellTiter-Glo viability; active compounds read high
In short: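 Genome-wide siRNA screen (3 siRNAs/gene, 20 nM) in mouse ES cells carrying hypomorphic BRCA2 R2336H; olaparib 500 nM added 48 h post-transfection, CellTiter-Glo viability 72 h later. Normalized to plate-median negative control; MAD z-scores, gene median, seed-adjusted.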

| Sequence | z-score |
| --- | --- |
| GCCUUUGUACAAUGACUAUTT against 2410002M20Rik | inactive: -0.17 |
| GGAAUUUGCUACGAAUCUCTT against 2410127E16Rik | inactive: 0.45 |
| CCCUAUCCUGUUCAUCUCUTT against Gpr50 | inactive: 1.18 |
| GCAUCCAUCAAAUCAAAAUTT against Met | inactive: 0.976 |
| GGAAUUUUGACAGAAAACCTT against Cradd | inactive: -0.599 |
| GGAGAUUCUAAAGACAGAGTT against 4931408L03Rik | inactive: -0.33 |
| CGAUAACAGCUGUUAACGUTT against Mttp | inactive: 0.596 |
| GGAGAUCCCAACCACGGAUTT against Otor | inactive: 0.144 |
| CCCAUAUUAAUUAUGGCGUTT against Hadha | inactive: -0.229 |
| CGUGGGAUUUAAUGAUCAATT against Nid2 | inactive: 0.787 |
| GCUGAAACGAUUUCUUACUTT against Cbfa2t1h | inactive: 1.19 |
| GGGCUUGUGUAAAGUGGAUTT against Kin | inactive: 0.644 |
| GGACAGUAAGGAUAAAAGCTT against Hsd3b3 | inactive: -0.522 |
| GGCAUACAAAUAUUCUUGCTT against Hist3h2bb | inactive: 1.48 |
| CCAUUCAUACCAUACCUGUTT against 3200001F09Rik | inactive: 0.446 |
| CCUUCCUUACCUACGUGAGTT against Nup88 | inactive: 0.288 |
| GGAAGAAACUGUAUGAAAGTT against Mycs | inactive: -0.384 |
| CCCUACAGGAAGUCACUCUTT against Gsdm1 | inactive: 0.232 |
| GCAGUGCACAGAAAUGGAATT against Olfr12 | inactive: 0.0258 |
| GGAAAGAUGUCAAAGAAAUTT against Gnat2 | inactive: 2.35 |
| CCACUUGUAGACUUGAUUUTT against Jag1 | inactive: 0.395 |
| GGAGAAGGAAUAAGUUUUGTT against Synj2bp | inactive: 0.417 |
| GGACAUGUACAGUUUAUUGTT against Cacna1a | inactive: 0.798 |
| GGGUGACCUUUCCAGAUGATT against Cldn13 | inactive: 0.67 |
| GGAAAUAAACACUAUGCAUTT against 2310012P17Rik | inactive: 0.992 |
| GGAAGGAAGCUAAAAAACGTT against C77032 | inactive: -0.285 |

| Sequence | z-score |
| --- | --- |
| CCUCAAUAUGAAUAAAGUGTT against 2900024D24Rik | inactive: -1.13 |
| GGCCUCACCUUUUUCUAUUTT against 2410008J05Rik | inactive: 0.682 |
| GCUGUUAACAGCACAACCATT against Slc36a2 | inactive: 0.296 |
| GGAGGCACGAAUUGCUGCUTT against Gadd45gip1 | inactive: -0.434 |
| GACUAUCUCAUUCUCAGCUTT against Olfr1238 | inactive: -0.234 |
| GGCACUAGAAGAGAGGUACTT against 4932416K20Rik | inactive: 0.397 |
| GGCAGCCUCUGAAAUUGCUTT against 1810012H11Rik | inactive: -1.82 |
| GGGAAAGAGUUUUACAAACTT against 4732467L16Rik | inactive: 1.69 |
| GGAAGAAGGCUGGUACUUATT against Lao1 | inactive: -0.0477 |
| CCUAUGGCCAUGAUCCUUATT against Olfr575 | inactive: 0.876 |
| GGUUUAUUCAUUAUUCUCCTT against 8030462N17Rik | inactive: 1.04 |
| GGCUUGCCCUUUAAUAAAATT against 1700011A15Rik | inactive: -1.02 |
| GCUAUUUGCUCAAAGCUGUTT against Spnb3 | inactive: -0.0261 |
| GGUUUCCAUGGUAACGUGGTT against Tns | inactive: 1.17 |
| GGUGUGUUAAUUUCUAGAUTT against Frs2 | inactive: 0.204 |
| GCAACCUGUCCCUUCUUGATT against Olfr225 | inactive: -0.69 |
| GCUGGAUUUGACAUUAUCGTT against Olfr151 | inactive: -0.307 |
| GGAGGGCAUCCUCUUCAAATT against 4930449E07Rik | inactive: 0.0932 |
| GGACCGAAACUCAGGCUGATT against Adra1d | inactive: -0.273 |
| GGUUGUCAAGAGCUCAUACTT against 1110002N22Rik | inactive: -0.32 |
| GGCCCUCUAUGAGUAUCUGTT against Olfr536 | inactive: 0.128 |
| GGCCAGUGUAUUUGACCUGTT against Slc22a18 | inactive: 0.946 |
| GGGUUUAGACUGAGAAAUATT against Eif3s2 | inactive: -2.3 |
| CCCUUUUGUGACCUUGUUATT against Scoc | inactive: -0.163 |
| CCCUGUCAAAAAAGUGGCCTT against Olfr1151 | inactive: 1.13 |
| GGAGUGGAAAAAGUGACCATT against Cox4i2 | inactive: -1.16 |

| Sequence | z-score |
| --- | --- |
| CCAAGCCUCCAAUGGUCAGTT against Stat6 | inactive: 0.687 |
| GGAGACUACCAGGACAAUATT against 0610006I08Rik | inactive: 0.775 |
| GGCAUGGAAACUGUUUUGCTT against Olfr677 | inactive: -0.186 |
| GGUGUCUGUUUGCCAUCUUTT against 1700056P18Rik | inactive: -0.276 |
| CCUUCCACCAACAAAAGCCTT against Hsh2d | inactive: -1.17 |
| GGAUGCUUACCAAAGGAUATT against Mrps18a | inactive: -0.129 |
| CCACACAACAAAAAAGUUGTT against Gm1008 | inactive: -0.235 |
| GGCAAGAUCCUAGCAUCCGTT against Srisnf2l | inactive: 0.624 |
| GUCCGAGUAGGUGAUACAATT against Gm638 | inactive: -0.441 |
| GGUCGACAGAUCAAGCCUUTT against Psmb3 | inactive: -3.6 |
| GGAAUUUCUUCUGAAUGUUTT against Bach2 | inactive: -2.66 |
| GGUCAAGAACAAUUCCAAGTT against Itih4 | inactive: -0.475 |
| GGUAAACAUGUCUAUGACUTT against Fpr-rs7 | inactive: 0.263 |
| GUUUGGCUCACUGUGCUGGTT against Gja12 | inactive: 1.88 |
| GGUGGCUGUUCUUUUGACGTT against Ptprt | inactive: 0.207 |
| GCACUUCACACUUAGGGUGTT against Gm644 | inactive: 0.52 |
| GGCUCUGUAUCGGAAGGCUTT against Zc3hdc7 | inactive: 1.3 |
| GGAGCUAAACAACUUAAGATT against BC018472 | inactive: -0.115 |
| GGAGCCAGUGACAAUAAAUTT against Mata2 | inactive: 0.574 |
| GGAAUUCAGUAGGUGGUCUTT against Rab39b | inactive: 0.227 |
| CCAACGAAGCCAAUAAAUGTT against 4930479M11Rik | inactive: -0.488 |
| CCCUCUCCUAUUCUACAUGTT against Arf3 | inactive: 0.284 |
| GCGUAGCCCUCAUAAGUCUTT against 2010007H12Rik | inactive: -0.551 |
| CGGACGAUUCGUGUCAAUUTT against Ppie | inactive: 0.103 |
| CGAACCGAACACAUAUAAATT against Scnn1a | inactive: 1.18 |
| GGCCCAGCAGACAACUUUATT against Sgca | inactive: -0.336 |

| Sequence | z-score |
| --- | --- |
| CGGUCUGAACUACUGUGUGTT against 6230417E10Rik | inactive: -0.858 |
| GGGAUCAAAUGUCUUUCCUTT against Wdr19 | inactive: 0.237 |
| GGCCCUUCCAGAAGAUACATT against Speer3 | inactive: -0.444 |
| CCAUACCAAUGAAUGCCUCTT against Tnfrsf6 | inactive: -0.112 |
| GGUUUUUGAGUUUCUGAUUTT against AI315068 | inactive: 0.851 |
| GGUUAUGGAAGAAAUUGCUTT against Tekt1 | inactive: 0.742 |
| CGAUCCAACCAGAUGAACATT against Ralgps1 | inactive: 0.505 |
| CCUUUAAAAGUACCAACCCTT against Eppb9 | inactive: -0.664 |
| GCACUGUUCUCAAAGUUAATT against Ddx3x | inactive: -0.932 |
| GCGUGAAAUGGAUGAUCAATT against 2310028N02Rik | inactive: -2.19 |
| GGUAUGACCUCAUUCGGCATT against 6030441H18Rik | inactive: -0.0649 |
| GGGCAGUGCUUAUUAUGCUTT against 1500005A01Rik | inactive: 0.438 |
| GGCCACAGUAAUGGGAAAUTT against Cga | inactive: -1.08 |
| GCCACCGAACCUAUAAAGCTT against Scd4 | inactive: 0.638 |
| GGAUACCCUGGAGUUUAUATT against Tessp2 | inactive: 0.0368 |
| CCAGAUUCCUCUUGGCCGATT against 6330409N04Rik | inactive: 1.33 |
| CCUAACUUCAGAACUGAAATT against Sh3gl3 | inactive: 0.442 |
| CCACGAGCAUUGAAAACCUTT against Otx3 | inactive: 0.535 |
| CCUGUGACUCUAUCCAUCATT against Dsg1c | inactive: -0.844 |
| CGAAAGUGAUCUUUGGAGCTT against Fpr-rs6 | inactive: -0.551 |
| GGAAGUCGCUUGGAGUUCUTT against Sh2bpsm1 | inactive: 0.192 |
| GUGUCUGUUGGAAAGCAGATT against 2310067B10Rik | inactive: -1.57 |
| GGAAGAAAGUGAGCCUUGUTT against Senp6 | inactive: -0.45 |
| GGGACAAUAACCUGAUGCUTT against V1rh10 | inactive: -0.664 |
| CCAUACUGUCAUAGCCCAATT against Olfr646 | inactive: -1.58 |

Some of the entries above, reformatted.
Sequence | z-score
GCGUGAAAUGGAUGAUCAATT against 2310028N02Rik | inactive: -2.19
CCUGUGACUCUAUCCAUCATT against Dsg1c | inactive: -0.844

Shown with bars between the fields: part of the list above
Sequence | z-score
CCACACAACAAAAAAGUUGTT against Gm1008 | inactive: -0.235
CCACGAGCAUUGAAAACCUTT against Otx3 | inactive: 0.535

In another format: results already given
Sequence	z-score
GCCACCGAACCUAUAAAGCTT against Scd4	inactive: 0.638
GGAUACCCUGGAGUUUAUATT against Tessp2	inactive: 0.0368
CCAGAUUCCUCUUGGCCGATT against 6330409N04Rik	inactive: 1.33
CCUAACUUCAGAACUGAAATT against Sh3gl3	inactive: 0.442
CCACGAGCAUUGAAAACCUTT against Otx3	inactive: 0.535
